Five molecules from paper PMC12501022 can be followed below.

Amino acid sequences for entries named in this document (tags omitted).
UniProt P08670: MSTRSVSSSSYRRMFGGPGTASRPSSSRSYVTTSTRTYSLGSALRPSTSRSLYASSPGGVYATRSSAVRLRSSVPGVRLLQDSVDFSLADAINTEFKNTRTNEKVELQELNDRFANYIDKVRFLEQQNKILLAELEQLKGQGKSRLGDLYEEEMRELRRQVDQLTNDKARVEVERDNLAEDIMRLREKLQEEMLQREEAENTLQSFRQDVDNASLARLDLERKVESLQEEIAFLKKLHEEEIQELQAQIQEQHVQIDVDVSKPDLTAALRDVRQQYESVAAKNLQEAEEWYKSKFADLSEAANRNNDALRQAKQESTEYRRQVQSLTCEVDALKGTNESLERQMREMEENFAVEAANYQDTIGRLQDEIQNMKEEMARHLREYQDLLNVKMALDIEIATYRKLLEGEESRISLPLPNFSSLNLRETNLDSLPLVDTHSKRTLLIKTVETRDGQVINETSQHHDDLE
UniProt Q9UNE7: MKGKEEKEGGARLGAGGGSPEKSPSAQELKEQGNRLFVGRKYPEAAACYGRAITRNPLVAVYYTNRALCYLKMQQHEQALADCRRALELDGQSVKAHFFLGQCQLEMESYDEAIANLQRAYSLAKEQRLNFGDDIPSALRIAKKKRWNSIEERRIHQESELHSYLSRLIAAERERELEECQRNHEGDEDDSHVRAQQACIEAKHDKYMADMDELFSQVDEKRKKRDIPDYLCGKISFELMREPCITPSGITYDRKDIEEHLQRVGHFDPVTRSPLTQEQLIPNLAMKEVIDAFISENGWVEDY
UniProt P19474: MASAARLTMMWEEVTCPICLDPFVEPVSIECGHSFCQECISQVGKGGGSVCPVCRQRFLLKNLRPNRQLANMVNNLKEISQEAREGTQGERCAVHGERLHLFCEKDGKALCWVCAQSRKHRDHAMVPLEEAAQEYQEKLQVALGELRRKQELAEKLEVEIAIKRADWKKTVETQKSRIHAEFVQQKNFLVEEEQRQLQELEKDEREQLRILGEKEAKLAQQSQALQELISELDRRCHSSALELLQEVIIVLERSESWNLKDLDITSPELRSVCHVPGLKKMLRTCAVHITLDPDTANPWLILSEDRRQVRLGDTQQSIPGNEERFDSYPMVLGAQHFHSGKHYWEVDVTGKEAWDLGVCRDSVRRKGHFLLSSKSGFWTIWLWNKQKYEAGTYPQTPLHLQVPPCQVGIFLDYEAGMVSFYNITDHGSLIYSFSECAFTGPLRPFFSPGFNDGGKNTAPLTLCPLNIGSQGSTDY

Assay [1] deals with Myc-Vimentin (human) (UniProt P08670). Kind of assay: affinity purification with mass spectrometry; HCT116 transfected with empty vector or Myc-Vimentin; immunoprecipitation coupled LC-MS.
Assay [2] concerns the target Flag-TM9SF1 (human) (UniProt O15321). Kind of assay: affinity purification with mass spectrometry; Flag-TM9SF1 stably overexpressing cells, RIPA lysate, anti-Flag or isotype IgG overnight at 4 °C, protein A/G agarose, SDS-PAGE, LC-MS.

No constants are given. Whether binding was seen depends on the method and setting. In cells and extracts the contact can be indirect. These calls come from enrichment with a bait or labelling near it, and not all partners need be listed.

Consider “STUB1, endogenous (from UniProt Q9UNE7 1-303)”, for which, in assay [1], the binding entry was “binds”.
Regarding “Vimentin, endogenous (from UniProt P08670 1-466)”, the binding result in assay [2] is on record as “binds”.
Regarding “tripartite motif containing 21 (TRIM21), endogenous (from UniProt P19474 1-475)”, in assay [1], the binding entry is “binds”.

B1: MKRN2, endogenous (protein, UniProt Q9H000 1-416)
chain: MSTKQITCRYFMHGVCREGSQCLFSHDLANSKPSTICKYYQKGYCAYGTRCRYDHTRPSAAAGGAVGTMAHSVPSPAFHSPHPPSEVTASIVKTNSHEPGKREKRTLVLRDRNLSGMAERKTQPSMVSNPGSCSDPQPSPEMKPHSYLDAIRSGLDDVEASSSYSNEQQLCPYAAAGECRFGDACVYLHGEVCEICRLQVLHPFDPEQRKAHEKICMLTFEHEMEKAFAFQASQDKVCSICMEVILEKASASERRFGILSNCNHTYCLSCIRQWRCAKQFENPIIKSCPECRVISEFVIPSVYWVEDQNKKNELIEAFKQGMGKKACKYFEQGKGTCPFGSKCLYRHAYPDGRLAEPEKPRKQLSSQGTVRFFNSVRLWDFIENRESRHVPNNEDVDMTELGDLFMHLSGVESSEP
For the molecule B1, the binding result in assay [1] is “binds”.

B2: RNF128, endogenous (protein, UniProt Q8TEB7 39-428)
chain: AEAVWTAYLNVSWRVPHTGVNRTVWELSEEGVYGQDSPLEPVAGVLVPPDGPGALNACNPHTNFTVPTVWGSTVQVSWLALIQRGGGCTFADKIHLAYERGASGAVIFNFPGTRNEVIPMSHPGAVDIVAIMIGNLKGTKILQSIQRGIQVTMVIEVGKKHGPWVNHYSIFFVSVSFFIITAATVGYFIFYSARRLRNARAQSRKQRQLKADAKKAIGRLQLRTLKQGDKEIGPDGDSCAVCIELYKPNDLVRILTCNHIFHKTCVDPWLLEHRTCPMCKCDILKALGIEVDVEDGSVSLQVPVSNEISNSASSHEEDNRSETASSGYASVQGTDEPPLEEHVQSTNESLQLVNHEANSVAVDVIPHVDNPTFEEDETPNQETAVREIKS
On to B2, for which the binding result in assay [1] is “binds”.
